Test results as given in article PMC12446771.
These are yes or no findings as the source states them, for the method shown. In cells and extracts the contact can be indirect. These calls come from enrichment with a bait or labelling near it, and not all partners need be listed. For some assays here: A no says only that the protein was not detected with the bait. For some assays here: Tags and fused reporters may be left off the sequences shown.

By UniProt entry, the sequences of proteins in these tests, tags left out. Residues count along the entry.
UniProt O43306: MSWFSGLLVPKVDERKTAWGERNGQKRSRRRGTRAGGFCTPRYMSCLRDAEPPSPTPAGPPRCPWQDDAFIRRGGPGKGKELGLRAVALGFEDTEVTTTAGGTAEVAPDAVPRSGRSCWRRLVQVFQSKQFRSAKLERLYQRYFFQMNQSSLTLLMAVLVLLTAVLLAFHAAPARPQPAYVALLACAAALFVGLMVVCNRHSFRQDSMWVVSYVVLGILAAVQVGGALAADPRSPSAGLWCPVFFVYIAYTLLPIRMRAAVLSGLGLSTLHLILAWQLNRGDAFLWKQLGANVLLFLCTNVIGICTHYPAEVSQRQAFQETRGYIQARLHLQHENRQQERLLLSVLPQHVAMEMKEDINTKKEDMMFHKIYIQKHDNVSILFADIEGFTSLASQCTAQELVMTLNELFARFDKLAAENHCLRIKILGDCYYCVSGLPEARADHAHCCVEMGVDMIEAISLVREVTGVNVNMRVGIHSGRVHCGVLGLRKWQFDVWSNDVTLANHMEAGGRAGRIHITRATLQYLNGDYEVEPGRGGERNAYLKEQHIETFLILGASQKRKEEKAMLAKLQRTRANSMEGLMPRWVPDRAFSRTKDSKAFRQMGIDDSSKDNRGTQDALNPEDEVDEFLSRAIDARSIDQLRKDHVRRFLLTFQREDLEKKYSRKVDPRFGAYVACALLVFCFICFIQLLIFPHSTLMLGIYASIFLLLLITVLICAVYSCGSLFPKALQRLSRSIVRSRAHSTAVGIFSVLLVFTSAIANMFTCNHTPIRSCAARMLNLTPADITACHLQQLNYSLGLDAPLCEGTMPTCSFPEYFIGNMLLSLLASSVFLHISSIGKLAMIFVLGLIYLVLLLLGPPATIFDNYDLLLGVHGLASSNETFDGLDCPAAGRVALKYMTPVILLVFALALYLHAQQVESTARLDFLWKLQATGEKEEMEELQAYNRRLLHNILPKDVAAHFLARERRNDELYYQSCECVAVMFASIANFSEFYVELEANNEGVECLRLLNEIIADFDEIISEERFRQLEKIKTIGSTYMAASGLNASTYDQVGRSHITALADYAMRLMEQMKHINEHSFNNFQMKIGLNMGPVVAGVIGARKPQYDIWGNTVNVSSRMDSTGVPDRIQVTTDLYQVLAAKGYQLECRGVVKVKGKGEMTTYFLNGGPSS
UniProt Q04400: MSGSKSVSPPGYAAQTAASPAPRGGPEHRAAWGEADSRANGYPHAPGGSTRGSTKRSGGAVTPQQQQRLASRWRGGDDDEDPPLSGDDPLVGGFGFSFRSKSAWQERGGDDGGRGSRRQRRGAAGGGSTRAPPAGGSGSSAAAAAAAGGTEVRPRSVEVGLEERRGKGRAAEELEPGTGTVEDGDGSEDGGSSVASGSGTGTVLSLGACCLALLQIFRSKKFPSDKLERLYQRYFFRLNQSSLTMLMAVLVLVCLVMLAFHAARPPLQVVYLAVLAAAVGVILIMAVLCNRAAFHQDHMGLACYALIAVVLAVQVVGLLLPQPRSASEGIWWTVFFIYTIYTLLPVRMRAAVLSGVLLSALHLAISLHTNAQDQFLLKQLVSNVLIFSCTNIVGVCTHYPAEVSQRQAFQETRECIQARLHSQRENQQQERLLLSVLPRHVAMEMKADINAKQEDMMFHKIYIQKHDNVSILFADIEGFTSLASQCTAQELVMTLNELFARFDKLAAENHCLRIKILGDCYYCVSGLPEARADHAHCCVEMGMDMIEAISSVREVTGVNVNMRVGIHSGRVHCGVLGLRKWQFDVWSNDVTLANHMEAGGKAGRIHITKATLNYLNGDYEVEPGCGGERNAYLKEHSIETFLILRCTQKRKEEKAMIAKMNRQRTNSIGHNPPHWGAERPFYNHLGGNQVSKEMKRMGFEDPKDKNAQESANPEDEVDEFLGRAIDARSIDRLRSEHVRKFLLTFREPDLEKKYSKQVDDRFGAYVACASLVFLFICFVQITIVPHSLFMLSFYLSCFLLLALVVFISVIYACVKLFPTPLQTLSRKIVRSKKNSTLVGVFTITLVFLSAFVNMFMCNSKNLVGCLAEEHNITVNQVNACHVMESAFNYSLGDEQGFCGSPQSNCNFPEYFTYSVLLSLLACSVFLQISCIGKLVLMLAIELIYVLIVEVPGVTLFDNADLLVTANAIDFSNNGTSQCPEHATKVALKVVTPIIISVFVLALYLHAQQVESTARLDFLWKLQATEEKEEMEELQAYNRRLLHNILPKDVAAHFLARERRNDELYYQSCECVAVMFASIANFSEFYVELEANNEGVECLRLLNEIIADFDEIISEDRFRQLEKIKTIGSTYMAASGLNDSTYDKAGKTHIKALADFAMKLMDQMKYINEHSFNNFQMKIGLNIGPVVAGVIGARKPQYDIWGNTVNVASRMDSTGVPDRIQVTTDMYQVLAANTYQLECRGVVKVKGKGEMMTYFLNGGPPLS
UniProt P24587: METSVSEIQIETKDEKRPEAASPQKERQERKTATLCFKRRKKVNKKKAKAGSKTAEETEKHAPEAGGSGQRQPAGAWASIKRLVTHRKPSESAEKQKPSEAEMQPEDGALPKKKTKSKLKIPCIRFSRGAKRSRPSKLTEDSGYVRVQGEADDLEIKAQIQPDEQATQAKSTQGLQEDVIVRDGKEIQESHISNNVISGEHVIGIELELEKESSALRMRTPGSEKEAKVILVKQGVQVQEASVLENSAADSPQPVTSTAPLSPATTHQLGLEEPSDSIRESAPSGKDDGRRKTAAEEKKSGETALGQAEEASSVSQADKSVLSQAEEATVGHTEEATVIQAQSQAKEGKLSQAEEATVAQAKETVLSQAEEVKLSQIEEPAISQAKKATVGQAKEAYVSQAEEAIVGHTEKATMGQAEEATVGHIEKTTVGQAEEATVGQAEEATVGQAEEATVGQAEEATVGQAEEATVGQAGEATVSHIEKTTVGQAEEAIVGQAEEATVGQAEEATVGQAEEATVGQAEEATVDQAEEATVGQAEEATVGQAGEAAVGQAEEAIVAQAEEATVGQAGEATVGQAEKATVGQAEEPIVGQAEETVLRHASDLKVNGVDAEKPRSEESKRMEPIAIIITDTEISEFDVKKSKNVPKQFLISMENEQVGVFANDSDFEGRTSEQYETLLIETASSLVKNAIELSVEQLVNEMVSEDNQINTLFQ
UniProt O95622: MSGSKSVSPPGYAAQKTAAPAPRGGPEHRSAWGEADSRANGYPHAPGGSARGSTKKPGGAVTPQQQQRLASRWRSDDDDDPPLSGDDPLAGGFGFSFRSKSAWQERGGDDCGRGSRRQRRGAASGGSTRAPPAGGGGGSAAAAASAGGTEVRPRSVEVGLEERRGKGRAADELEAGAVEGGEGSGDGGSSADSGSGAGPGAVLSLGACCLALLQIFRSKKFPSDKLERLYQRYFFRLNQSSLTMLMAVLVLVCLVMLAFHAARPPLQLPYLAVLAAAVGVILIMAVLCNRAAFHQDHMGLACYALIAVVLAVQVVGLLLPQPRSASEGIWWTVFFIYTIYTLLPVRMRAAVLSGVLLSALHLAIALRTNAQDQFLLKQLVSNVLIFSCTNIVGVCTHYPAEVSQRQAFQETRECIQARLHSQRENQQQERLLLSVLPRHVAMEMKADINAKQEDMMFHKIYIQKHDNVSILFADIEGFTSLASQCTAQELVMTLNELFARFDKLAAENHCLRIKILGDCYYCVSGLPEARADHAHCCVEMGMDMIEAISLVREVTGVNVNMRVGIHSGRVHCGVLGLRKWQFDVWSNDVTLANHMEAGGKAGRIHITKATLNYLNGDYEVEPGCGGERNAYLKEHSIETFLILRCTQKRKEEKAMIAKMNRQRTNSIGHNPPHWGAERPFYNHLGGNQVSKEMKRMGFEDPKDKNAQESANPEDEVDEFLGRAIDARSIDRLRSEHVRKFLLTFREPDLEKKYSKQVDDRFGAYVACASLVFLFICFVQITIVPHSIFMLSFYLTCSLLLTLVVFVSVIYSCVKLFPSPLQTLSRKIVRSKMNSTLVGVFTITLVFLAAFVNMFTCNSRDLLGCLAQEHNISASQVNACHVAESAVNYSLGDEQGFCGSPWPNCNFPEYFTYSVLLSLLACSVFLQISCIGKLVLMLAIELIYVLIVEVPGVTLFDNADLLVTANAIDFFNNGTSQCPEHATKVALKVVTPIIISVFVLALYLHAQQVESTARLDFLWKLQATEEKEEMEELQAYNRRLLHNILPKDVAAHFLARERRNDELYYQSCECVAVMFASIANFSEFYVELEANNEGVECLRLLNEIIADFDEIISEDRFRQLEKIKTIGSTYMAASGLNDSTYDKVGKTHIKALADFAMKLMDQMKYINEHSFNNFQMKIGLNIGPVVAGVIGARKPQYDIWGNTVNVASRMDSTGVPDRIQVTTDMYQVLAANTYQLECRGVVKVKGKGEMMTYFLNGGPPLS
UniProt P20786, residues 24-1088: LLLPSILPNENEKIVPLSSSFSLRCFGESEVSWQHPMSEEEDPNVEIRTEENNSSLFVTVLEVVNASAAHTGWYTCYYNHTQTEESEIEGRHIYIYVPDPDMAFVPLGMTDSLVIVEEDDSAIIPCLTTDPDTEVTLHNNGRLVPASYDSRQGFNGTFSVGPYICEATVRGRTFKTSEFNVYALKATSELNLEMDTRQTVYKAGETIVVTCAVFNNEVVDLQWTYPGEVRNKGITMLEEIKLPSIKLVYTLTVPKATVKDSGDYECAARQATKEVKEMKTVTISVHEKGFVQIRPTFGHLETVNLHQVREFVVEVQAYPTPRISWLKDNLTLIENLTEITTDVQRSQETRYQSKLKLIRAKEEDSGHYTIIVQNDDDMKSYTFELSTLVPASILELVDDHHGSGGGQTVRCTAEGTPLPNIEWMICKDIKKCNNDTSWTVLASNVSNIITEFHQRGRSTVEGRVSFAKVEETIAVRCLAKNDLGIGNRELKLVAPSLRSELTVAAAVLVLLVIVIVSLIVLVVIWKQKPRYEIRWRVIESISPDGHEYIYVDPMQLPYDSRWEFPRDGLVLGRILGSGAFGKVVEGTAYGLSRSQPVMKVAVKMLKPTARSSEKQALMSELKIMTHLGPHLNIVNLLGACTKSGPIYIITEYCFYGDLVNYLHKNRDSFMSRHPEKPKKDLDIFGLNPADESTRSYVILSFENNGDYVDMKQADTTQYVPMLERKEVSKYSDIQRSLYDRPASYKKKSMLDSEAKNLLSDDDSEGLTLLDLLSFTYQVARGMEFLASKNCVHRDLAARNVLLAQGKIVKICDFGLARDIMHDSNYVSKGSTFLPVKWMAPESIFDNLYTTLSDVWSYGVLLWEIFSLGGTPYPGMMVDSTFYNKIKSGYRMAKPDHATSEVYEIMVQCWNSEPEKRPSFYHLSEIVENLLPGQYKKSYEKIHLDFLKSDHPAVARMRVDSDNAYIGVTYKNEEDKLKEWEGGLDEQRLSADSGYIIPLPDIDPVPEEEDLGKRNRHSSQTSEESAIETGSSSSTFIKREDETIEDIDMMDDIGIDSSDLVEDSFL
UniProt P11507: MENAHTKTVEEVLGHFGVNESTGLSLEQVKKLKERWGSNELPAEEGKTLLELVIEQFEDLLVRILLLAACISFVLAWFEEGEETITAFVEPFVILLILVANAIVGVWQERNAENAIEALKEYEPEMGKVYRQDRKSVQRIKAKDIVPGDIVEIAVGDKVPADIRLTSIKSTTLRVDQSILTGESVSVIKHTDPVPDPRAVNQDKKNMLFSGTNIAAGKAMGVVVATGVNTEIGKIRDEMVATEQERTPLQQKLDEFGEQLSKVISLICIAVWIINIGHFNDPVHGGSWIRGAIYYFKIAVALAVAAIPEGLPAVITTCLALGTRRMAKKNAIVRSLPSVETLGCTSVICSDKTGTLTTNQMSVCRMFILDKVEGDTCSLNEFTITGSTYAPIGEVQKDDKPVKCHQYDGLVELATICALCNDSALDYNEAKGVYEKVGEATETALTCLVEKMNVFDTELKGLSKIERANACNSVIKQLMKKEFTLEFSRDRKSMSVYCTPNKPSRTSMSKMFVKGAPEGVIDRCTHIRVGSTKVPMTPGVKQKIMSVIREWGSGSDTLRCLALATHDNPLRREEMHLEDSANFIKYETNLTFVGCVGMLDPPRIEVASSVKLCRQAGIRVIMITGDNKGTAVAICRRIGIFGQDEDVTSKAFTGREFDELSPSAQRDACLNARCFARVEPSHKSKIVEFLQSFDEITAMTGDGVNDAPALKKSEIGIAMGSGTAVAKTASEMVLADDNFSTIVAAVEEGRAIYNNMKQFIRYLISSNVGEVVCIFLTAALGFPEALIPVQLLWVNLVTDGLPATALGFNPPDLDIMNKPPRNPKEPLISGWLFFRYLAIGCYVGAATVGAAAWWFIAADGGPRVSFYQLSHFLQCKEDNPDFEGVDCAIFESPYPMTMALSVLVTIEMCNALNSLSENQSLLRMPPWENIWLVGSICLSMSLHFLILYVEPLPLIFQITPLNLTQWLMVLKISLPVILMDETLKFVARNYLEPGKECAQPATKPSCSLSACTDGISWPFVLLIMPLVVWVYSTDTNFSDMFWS

Biological target: AC6-miniTurbo-FLAG fusion protein (human adenylyl cyclase 6) (human) (UniProt O43306)
Test: proximity labelling; BioID: AC-miniTurbo-FLAG baits virally expressed in primary neonatal rat cardiomyocytes, vehicle or 48 h norepinephrine, 50 μM biotin 3 h, RIPA lysis, streptavidin pull-down, LC-MS/MS, SAINT score ≥0.7 against GFP-mT and uninfected controls

Row | binding | Substance
1 | no binding | ORAI1 (from UniProt Q5M848 1-304)
2 | binds | STIM1 (from UniProt P84903 23-685)
3 | binds | endogenous AC5 (from UniProt Q04400 1-1262) (enzyme)

Biological target: T1, AC9-miniTurbo-FLAG fusion protein (human adenylyl cyclase 9) (human) (UniProt O60503)
T1 sequence: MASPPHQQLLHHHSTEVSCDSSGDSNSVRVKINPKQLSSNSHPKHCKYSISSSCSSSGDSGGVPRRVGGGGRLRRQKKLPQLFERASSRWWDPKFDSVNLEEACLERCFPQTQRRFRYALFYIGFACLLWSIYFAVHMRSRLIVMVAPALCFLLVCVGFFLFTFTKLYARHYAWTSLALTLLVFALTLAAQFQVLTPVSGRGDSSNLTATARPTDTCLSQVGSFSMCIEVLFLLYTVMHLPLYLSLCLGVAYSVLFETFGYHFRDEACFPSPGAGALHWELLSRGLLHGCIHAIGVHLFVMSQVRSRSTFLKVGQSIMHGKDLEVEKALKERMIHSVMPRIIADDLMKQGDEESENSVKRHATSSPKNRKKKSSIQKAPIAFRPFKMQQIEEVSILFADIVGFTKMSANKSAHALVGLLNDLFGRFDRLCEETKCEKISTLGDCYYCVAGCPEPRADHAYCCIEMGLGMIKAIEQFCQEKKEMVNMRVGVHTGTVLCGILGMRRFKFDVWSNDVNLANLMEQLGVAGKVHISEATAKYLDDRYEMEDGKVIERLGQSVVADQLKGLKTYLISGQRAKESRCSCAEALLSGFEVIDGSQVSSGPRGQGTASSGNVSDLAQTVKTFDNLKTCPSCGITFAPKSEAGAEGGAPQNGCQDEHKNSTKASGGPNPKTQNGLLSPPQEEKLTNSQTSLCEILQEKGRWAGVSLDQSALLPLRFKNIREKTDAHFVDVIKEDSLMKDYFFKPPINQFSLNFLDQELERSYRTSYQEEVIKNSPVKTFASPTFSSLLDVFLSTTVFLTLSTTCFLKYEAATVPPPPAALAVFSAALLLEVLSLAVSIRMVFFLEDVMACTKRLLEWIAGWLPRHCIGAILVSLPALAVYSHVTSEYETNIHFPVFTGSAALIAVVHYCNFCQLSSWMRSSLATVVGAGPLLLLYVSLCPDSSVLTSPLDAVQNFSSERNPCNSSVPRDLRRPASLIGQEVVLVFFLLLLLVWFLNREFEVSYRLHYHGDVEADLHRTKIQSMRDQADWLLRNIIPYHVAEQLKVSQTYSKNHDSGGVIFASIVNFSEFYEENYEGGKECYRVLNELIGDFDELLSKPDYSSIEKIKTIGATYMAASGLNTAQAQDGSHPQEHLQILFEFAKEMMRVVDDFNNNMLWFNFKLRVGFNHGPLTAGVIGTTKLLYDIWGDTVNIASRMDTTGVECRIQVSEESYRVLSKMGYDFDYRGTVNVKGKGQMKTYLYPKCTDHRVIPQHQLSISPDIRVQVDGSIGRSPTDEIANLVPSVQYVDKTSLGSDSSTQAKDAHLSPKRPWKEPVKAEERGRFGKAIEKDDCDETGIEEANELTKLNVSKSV
Test: as above

Row | binding | Substance
4 | binds | AKAP5 (from UniProt P24587 1-714)
5 | binds weakly | KCNQ1 (from UniProt Q9Z0N7 1-669)
6 | binds | vesicle-associated membrane protein 2 (VAMP2) (from UniProt P63045 1-116)

Second part, the substance before the results:

Row | Substance | binding
7 | desmoglein (DSG2) | binds
8 | dystroglycan (DAG1) | binds
9 | syntrophin alpha 1 (SNTA1) | binds

Biological target: AC5-miniTurbo-FLAG fusion protein (human adenylyl cyclase 5) (human) (UniProt O95622)
Test: as above

Row | binding | Substance
10 | binds weakly | AKAP5 (from UniProt P24587 1-714)
11 | binds | discs large MAGUK-scaffold protein 1 (DLG1) (from UniProt Q62696 1-911)

More lines, now with the values behind:

Row | Substance | binding
12 | AKAP12 (from UniProt Q5QD51 1-1687) | binds
13 | ORAI1 (from UniProt Q5M848 1-304) | no binding
14 | STIM1 (from UniProt P84903 23-685) | binds
15 | endogenous AC6 (from UniProt Q03343 1-1166) (enzyme) | binds
16 | platelet-derived growth factor receptor alpha (from UniProt P20786 24-1088) | binds

Biological target: AC6-miniTurbo-FLAG fusion protein (human adenylyl cyclase 6) (human) (UniProt O43306)
Test: affinity purification with mass spectrometry; FLAG-MS: anti-FLAG M2 magnetic beads on lysates (0.1% NP-40, 100 mM KCl) of neonatal rat cardiomyocytes expressing AC-mT-FLAG, 2 to 3 h at 4 °C, SAINT against GFP-mT-FLAG

Row | binding | Substance
17 | binds | ATP2A2 (sarco/endoplasmic reticulum Ca2+-ATPase 2) (from UniProt P11507 1-1043)
18 | binds | endogenous AC5 (from UniProt Q04400 1-1262) (enzyme)
19 | binds | ryanodine receptor 2 (RYR2) (from UniProt B0LPN4 1-4955)

Biological target: T1, AC9-miniTurbo-FLAG fusion protein (human adenylyl cyclase 9) (human)
Test: as above

Row | binding | Substance
20 | binds | ATP2A2 (sarco/endoplasmic reticulum Ca2+-ATPase 2) (from UniProt P11507 1-1043)
21 | binds weakly | endogenous AC5 (from UniProt Q04400 1-1262) (enzyme)

Biological target: AC5-miniTurbo-FLAG fusion protein (human adenylyl cyclase 5) (human) (UniProt O95622)
Test: as above

Row | binding | Substance
22 | binds | ATP2A2 (sarco/endoplasmic reticulum Ca2+-ATPase 2) (from UniProt P11507 1-1043)
23 | binds | endogenous AC6 (from UniProt Q03343 1-1166) (enzyme)
